Experimental data: PubChem BioAssay AID1224830 (NIAID, 2016)
In all, the deposit lists about 18,000 reagents; shown is a part drawn at random. About 2,900 of all reagents (16%) were called active. 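Calls are made per well; low scores hint the gene aids the LPS response, high scores that it dampens it.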 Repeated entries: four replicate wells of each siRNA pool.

Screen: 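Regulators of TLR4 signalling towards TNF-alpha in macrophage-like cells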 (primary screen)
Cell system: human THP-1 monocytic leukaemia cells, TNF dual-luciferase reporter clone, PMA-differentiated to macrophage-like cells
Reagents: siRNA pool against human genes, 50 nM
Timing: LPS for 4 h, given about 3 days after siRNA transfection
Challenge: bacterial LPS (TLR4 ligand), 10 ng/ml
Read-out: 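Ratio of firefly to renilla light, scaled to the plate median and expressed as a robust z-score per replicate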
Reading the numbers: TNF reporter robust z-score: higher = stronger TNF reporter response to LPS
Call rule: 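a well is active when its z-score exceeds 2.8 or falls below -1.5; control wells carry no call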

{"gene":"ZNF318","TNF reporter robust z-score":-0.65,"outcome":"inactive"}
{"gene":"ZNF318","TNF reporter robust z-score":-0.38,"outcome":"inactive"}
{"gene":"ZNF318","TNF reporter robust z-score":-0.44,"outcome":"inactive"}
{"gene":"ZNF318","TNF reporter robust z-score":-0.34,"outcome":"inactive"}
{"gene":"CRMP1","TNF reporter robust z-score":0.07,"outcome":"inactive"}
{"gene":"CRMP1","TNF reporter robust z-score":0.86,"outcome":"inactive"}
{"gene":"CRMP1","TNF reporter robust z-score":-0.7,"outcome":"inactive"}
{"gene":"CRMP1","TNF reporter robust z-score":-0.07,"outcome":"inactive"}

Further records:
{"gene":"ALDH1L2","TNF reporter robust z-score":0.77,"outcome":"inactive"}
{"gene":"ALDH1L2","TNF reporter robust z-score":0.79,"outcome":"inactive"}
{"gene":"ALDH1L2","TNF reporter robust z-score":1.46,"outcome":"inactive"}
{"gene":"ALDH1L2","TNF reporter robust z-score":2.28,"outcome":"inactive"}
{"gene":"C22orf15","TNF reporter robust z-score":-1.66,"outcome":"active"}
{"gene":"C22orf15","TNF reporter robust z-score":3.77,"outcome":"active"}
{"gene":"C22orf15","TNF reporter robust z-score":-1.23,"outcome":"inactive"}
{"gene":"C22orf15","TNF reporter robust z-score":-0.46,"outcome":"inactive"}
{"gene":"CLDN18","TNF reporter robust z-score":0.7,"outcome":"inactive"}
{"gene":"CLDN18","TNF reporter robust z-score":0.25,"outcome":"inactive"}
{"gene":"CLDN18","TNF reporter robust z-score":0.4,"outcome":"inactive"}
{"gene":"CLDN18","TNF reporter robust z-score":1.2,"outcome":"inactive"}
